According to patent publication US9090701B2, “Methods of detecting oxidized calcium/calmodulin dependent protein kinase II” (University of Iowa Research Foundation, priority 2008, dated 2015):

Test: LC-MS-MS of tryptic methionine-containing peptides after H2O2 treatment of intact protein
Set-up: key to Relative Change (symbols): NQ: Observed in H2O2 treated sample, absent in control sample, so not quantified; NO: Not observed
Details: H2O2 treated vs non-treated intact protein; for Relative Change: average ± standard deviation, three replicates

| Sequence | Relative Change | Relative Change (symbols) |
| --- | --- | --- |
| STVASMMHR | 0.36 ± 0.06 |  |
| STVASMMHR + 2 Oxygen: doubly oxidized form of the STVASMMHR peptide (two added oxygens (methionine oxidation)) | 115 ± 25 |  |
| STVASMMHR + 4 Oxygen: STVASMMHR peptide with four added oxygens (four added oxygens (methionine oxidation)) |  | NO^c |
| STVASMMHR + 3 Oxygen: triply oxidized form of the STVASMMHR peptide (three added oxygens (methionine oxidation)) |  | NQ^b |
| STVASMMHR + 1 Oxygen: singly oxidized form of the STVASMMHR peptide (one added oxygen (methionine oxidation)) | 6.4 ± 1.9 |  |
